From PubChem BioAssay AID493014 (National Center for Advancing Translational Sciences (NCATS), 2011)
The other results are listed elsewhere or left out. Shown are side measurements of this screen, not its main read-out; they come without a call. Most of these compounds were active or inconclusive in the main read-out, so they are no random draw. The note in brackets gives the kind of curve behind each potency; many fits are weak.

Experiment: qHTS Assay to Find Inhibitors of Chronic Active B-Cell Receptor Signaling
Conditions: ABC-DLBCL IkBa-CBG/CBR reporter, luminescence ratio (green luciferase fused to IkBa over red control in TMD8 lymphoma cells), 4 h
Summary of the method: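 TMD8 ABC-DLBCL cells carrying doxycycline-inducible green luciferase fused to IkappaBalpha plus unfused red luciferase were exposed to compounds (up to 46 uM) for 4 hrs at 37C. Activity came from the overlap-corrected green/red luminescence ratio.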

[1] = measured here: CBR red luminescence, cell number
[2] = measured here: IkBa-CBG green luminescence

Structure (SMILES)	AC50 [1]	AC50 [2]
CCOC(=O)CCN(Cc1sccc1C)S(=O)(=O)c1ccc(F)cc1	0.58 µM [falling, full curve, poor fit]	–
COc1ccc(CCn2c(-c3ccco3)nc3nc4ccccc4nc32)cc1OC	10 µM [falling, partial curve]	–
COc1ccccc1CN1CCNC(=O)C1CC(=O)NCc1c(C)n[nH]c1C (centres undefined)	0.447 µM [falling, partial curve, poor fit]	–
c1ccc(CCc2nn3c(-c4ccncc4)nnc3s2)cc1	0.651 µM [falling, full curve, poor fit]	–
CC(NC(=O)Nc1ccc([N+](=O)[O-])cc1)C(c1ccccc1)N1CCOCC1 (centres undefined)	2.82 µM [rising, full curve]	–
Cc1ccn(CC(=O)N2CCCC(N3CCN(c4ccc(F)cc4)CC3)C2)n1 (centres undefined)	35.5 µM [rising, single point]	–
Cc1c(-n2c(SCC(C)C)nc3ccccc3c2=O)c(=O)n(-c2ccccc2)n1C	11.2 µM [rising, partial curve]	–
Cc1cc(SCC(=O)c2ccccc2)nc(SCC(=O)c2ccccc2)n1	35.5 µM [falling, single point]	–
CC(C)n1c(N)c(C#N)c2ccc([N+](=O)[O-])cc2c1=O	1.41 µM [rising, partial curve, poor fit]	–
O=C(NC1CCCC1)c1ccc2nc[nH]c2c1	11.6 µM [rising, partial curve, poor fit]	–
COc1ccc(CN(C)CC(O)COc2ccc(-c3ccccc3)cc2)cc1OC (centres undefined)	3.98 µM [rising, full curve, poor fit]	–
O=C(N/N=C/c1c(Nc2cccc(C(F)(F)F)c2)nc2ccccn2c1=O)c1ccccc1	4.47 µM [rising, full curve, poor fit]	–
COc1ccc(Cl)cc1NC(=O)N1CCN(C2CCCCC2)CC1	11.6 µM [falling, partial curve, poor fit]	–
COc1ccc(CN2C(=O)/C(=C/c3ccncc3)SC2=S)cc1	20.6 µM [falling, single point]	29.1 µM [falling, single point]
Cc1c(Cl)c([N+](=O)[O-])nn1Cc1ccc(C(=O)NN)o1	1.58 µM [falling, full curve, poor fit]	–
O=C(Nc1ccc(N2CCCC2)cc1)c1ccc2ccccc2c1	2.59 µM [falling, full curve]	–
C[C@H](NC(=O)c1ncn(C)c1C(=O)N[C@@H](C)c1ccccc1)c1ccccc1	29.1 µM [rising, single point]	–
CCN1CCN(CNC(=O)c2cnccn2)CC1	6.51 µM [rising, single point]	–
CCOC(=O)CCc1c(C)nc2cc(-c3ccc(Cl)cc3)[nH]n2c1=O	0.0164 µM [falling, full curve, poor fit]	–
O=C(Nc1ccc2c(c1)OCO2)c1ccc(Br)c(S(=O)(=O)N2CCCC2)c1	4.61 µM [falling, full curve]	–

Rewritten field by field: 2 of the compounds above
COc1ccc(CN(C)CC(O)COc2ccc(-c3ccccc3)cc2)cc1OC (centres undefined)
  AC50 [1]: 3.98 µM [rising, full curve, poor fit]
O=C(N/N=C/c1c(Nc2cccc(C(F)(F)F)c2)nc2ccccn2c1=O)c1ccccc1
  AC50 [1]: 4.47 µM [rising, full curve, poor fit]

(list continues)

Structure (SMILES)	AC50 [1]	AC50 [2]
COc1ccc(OCCSc2nc(N)cc(N)n2)cc1	0.259 µM [rising, full curve, poor fit]	–
O=C(Nc1ccc(C(O)(C(F)(F)F)C(F)(F)F)cc1)c1ccc(Cl)c([N+](=O)[O-])c1	20.6 µM [falling, single point]	25.9 µM [rising, single point]
Clc1ccc(-c2cn3cc(Cl)ccc3n2)cc1	15.8 µM [falling, single point]	–
O=C(OCC#CCSc1nnc(-c2ccc(Br)cc2)o1)c1cccs1	29.1 µM [rising, single point]	–
Cc1cn([C@@H](CCCCNC(=O)OC(C)(C)C)C(=O)NCCCCCCCCCCC(=O)N2CCN(C(=O)OC(C)(C)C)CC2)nn1	29.1 µM [falling, single point]	–
COc1cc(/C=N/N=C(/N)c2nonc2N)cc(Br)c1OCc1ccccc1C	14.6 µM [rising, partial curve]	32.6 µM [falling, partial curve, poor fit]
Fc1cccc(CCN2CCNC[C@@H]2CC2CCCCC2)c1	14.6 µM [falling, partial curve, poor fit]	–
C/C(=N\NC(=S)NCCc1ccccc1)c1cccc(Br)c1	35.5 µM [falling, single point]	35.5 µM [falling, partial curve, poor fit]
CCOc1ccc(-n2ccnc(SCC(=O)Nc3ccc(OC)cc3OC)c2=O)cc1	0.326 µM [rising, full curve, poor fit]	–
CCCCNc1nnc(SCC(=O)c2c[nH]c3ccccc23)s1	29.1 µM [falling, single point]	–
O=C(NCCc1ccccc1)c1ccc(Cl)cc1[N+](=O)[O-]	12.6 µM [rising, single point]	–
CC1CC(N(C(=O)c2ccc(Cl)cc2)c2ccccc2)c2ccccc2N1C(=O)c1ccco1 (centres undefined)	16.4 µM [falling, partial curve, poor fit]	–
COc1ccccc1-n1cnnc1SCC(=O)c1c[nH]c2ccccc12	2.06 µM [falling, full curve]	–
Cc1ccc(C(=O)Nc2nnc(-c3ccncc3)o2)cc1	11.2 µM [falling, single point]	25.1 µM [falling, single point]
COc1ccc(C2CC(c3ccccc3)=NN2c2ccc(/C=N/NC(=O)c3ccncc3)cc2)cc1 (centres undefined)	3.98 µM [rising, full curve, poor fit]	–
CCN1CCN(c2ncnc3c2cnn3-c2cccc(C)c2)CC1	25.1 µM [falling, single point]	–
CN(C)CCC=C1c2ccccc2C=Cc2ccccc21	29.1 µM [falling, single point]	–
CC(C)Nc1nc(NC(C)C)nc(N(C#N)CCOc2ccc(Cl)cc2Cl)n1	–	25.9 µM [rising, partial curve, poor fit]
CCOc1cc(C)c(C(C)C)cc1S(=O)(=O)n1cnc(C)c1	12.6 µM [falling, partial curve]	–
